± gives the standard deviation of the averaged measurements. Only a part is listed here, and it is no random draw. Most values lie at the level of the controls, where differences are scatter.
Compound: Nc1ncnc2c1ncn2[C@@H]1O[C@H](COP(=O)(O)OP(=O)(O)OP(=O)(O)O)[C@@H](O)[C@H]1O [adenosine triphosphate]
Test: NP40-soluble protein abundance relative to vehicle (solubility fold change) (ratio); higher = more soluble protein in presence of ATP
Summary of the method: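 Crude Jurkat lysate, prepared by Dounce homogenisation, was exposed to eight concentrations from 0.1 to 10 mM for 10 min at room temperature and then 3 min at 37 °C. Solubilisation used 0.8% NP40 with benzonase for 60 min at 4 °C, followed by ultracentrifugation and TMT labelling of the supernatant for LC-MS/MS. After vsn normalisation of intensities, each value is the fold change against the detergent-processed vehicle within each replicate, across three independent experiments.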

Chains of the proteins cited; added tags and fusions are not shown. Lines headed by an entry give the natural chain unless they say otherwise; changes in a name come on top.
UniProt Q4VCS5: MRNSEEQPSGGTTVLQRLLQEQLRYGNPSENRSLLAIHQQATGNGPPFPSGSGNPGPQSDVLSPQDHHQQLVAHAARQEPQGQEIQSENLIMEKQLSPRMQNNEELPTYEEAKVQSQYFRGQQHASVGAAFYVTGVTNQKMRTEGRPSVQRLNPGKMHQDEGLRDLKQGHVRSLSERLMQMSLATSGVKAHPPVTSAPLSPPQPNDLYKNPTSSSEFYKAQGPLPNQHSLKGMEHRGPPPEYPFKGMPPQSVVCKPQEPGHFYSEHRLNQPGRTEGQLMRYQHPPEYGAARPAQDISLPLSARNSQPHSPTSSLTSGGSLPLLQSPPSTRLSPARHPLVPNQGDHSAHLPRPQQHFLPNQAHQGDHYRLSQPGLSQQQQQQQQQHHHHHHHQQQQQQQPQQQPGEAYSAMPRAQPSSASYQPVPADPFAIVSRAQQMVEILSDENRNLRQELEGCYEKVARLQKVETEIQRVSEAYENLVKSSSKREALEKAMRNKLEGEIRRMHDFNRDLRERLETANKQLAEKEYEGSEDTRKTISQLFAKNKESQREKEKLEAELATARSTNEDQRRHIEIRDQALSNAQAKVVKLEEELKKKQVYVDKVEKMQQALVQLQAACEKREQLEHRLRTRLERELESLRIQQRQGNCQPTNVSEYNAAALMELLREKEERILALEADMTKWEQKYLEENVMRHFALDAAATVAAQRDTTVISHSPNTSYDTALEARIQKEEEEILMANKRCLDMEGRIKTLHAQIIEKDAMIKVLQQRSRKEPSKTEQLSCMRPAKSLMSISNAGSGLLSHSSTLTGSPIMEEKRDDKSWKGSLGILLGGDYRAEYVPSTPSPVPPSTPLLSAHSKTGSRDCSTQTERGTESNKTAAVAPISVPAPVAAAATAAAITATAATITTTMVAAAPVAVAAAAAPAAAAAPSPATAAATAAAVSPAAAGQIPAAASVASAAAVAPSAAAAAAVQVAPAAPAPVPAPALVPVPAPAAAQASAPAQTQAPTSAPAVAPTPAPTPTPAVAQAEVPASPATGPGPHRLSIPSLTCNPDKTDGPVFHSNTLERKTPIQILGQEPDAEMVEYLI
UniProt Q5RI15: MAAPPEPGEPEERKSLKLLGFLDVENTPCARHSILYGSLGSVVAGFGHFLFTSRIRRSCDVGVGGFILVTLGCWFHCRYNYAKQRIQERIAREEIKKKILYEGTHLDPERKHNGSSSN
UniProt Q5JS54: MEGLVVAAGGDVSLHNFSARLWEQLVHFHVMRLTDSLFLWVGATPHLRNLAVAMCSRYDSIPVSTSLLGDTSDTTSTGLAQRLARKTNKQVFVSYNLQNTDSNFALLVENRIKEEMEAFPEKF
UniProt Q9UGV2: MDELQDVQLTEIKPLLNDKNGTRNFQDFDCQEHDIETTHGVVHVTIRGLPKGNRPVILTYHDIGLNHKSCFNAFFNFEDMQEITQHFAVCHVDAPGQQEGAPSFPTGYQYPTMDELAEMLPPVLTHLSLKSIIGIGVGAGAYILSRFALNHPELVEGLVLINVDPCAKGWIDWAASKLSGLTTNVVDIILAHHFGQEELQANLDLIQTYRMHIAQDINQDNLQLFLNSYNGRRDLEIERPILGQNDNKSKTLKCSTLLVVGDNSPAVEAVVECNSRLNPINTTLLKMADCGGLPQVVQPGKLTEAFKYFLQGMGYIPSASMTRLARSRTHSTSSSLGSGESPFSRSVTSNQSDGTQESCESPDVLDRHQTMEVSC
UniProt Q6PCB5: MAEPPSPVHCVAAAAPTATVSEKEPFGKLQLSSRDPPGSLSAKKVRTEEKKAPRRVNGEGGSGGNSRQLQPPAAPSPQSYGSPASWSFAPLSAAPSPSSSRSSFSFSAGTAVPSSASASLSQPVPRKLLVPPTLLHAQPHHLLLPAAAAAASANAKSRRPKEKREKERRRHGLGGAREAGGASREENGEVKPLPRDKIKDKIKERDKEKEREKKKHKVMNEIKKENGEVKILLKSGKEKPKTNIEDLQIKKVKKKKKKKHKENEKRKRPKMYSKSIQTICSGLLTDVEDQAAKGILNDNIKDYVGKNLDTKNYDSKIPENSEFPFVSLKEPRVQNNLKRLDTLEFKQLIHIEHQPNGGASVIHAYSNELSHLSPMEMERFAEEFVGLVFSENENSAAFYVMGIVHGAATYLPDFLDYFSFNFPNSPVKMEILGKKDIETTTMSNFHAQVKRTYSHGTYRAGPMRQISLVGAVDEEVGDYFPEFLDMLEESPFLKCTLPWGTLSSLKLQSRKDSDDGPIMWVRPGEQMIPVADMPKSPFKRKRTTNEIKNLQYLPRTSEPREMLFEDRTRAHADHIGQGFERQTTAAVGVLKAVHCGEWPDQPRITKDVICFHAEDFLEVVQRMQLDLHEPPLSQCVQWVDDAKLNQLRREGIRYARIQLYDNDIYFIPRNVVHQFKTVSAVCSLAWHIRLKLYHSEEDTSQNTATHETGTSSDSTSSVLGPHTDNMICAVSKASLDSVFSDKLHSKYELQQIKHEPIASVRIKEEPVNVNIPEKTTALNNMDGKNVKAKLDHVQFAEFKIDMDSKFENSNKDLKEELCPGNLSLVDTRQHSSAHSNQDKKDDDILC
UniProt Q5VWJ9: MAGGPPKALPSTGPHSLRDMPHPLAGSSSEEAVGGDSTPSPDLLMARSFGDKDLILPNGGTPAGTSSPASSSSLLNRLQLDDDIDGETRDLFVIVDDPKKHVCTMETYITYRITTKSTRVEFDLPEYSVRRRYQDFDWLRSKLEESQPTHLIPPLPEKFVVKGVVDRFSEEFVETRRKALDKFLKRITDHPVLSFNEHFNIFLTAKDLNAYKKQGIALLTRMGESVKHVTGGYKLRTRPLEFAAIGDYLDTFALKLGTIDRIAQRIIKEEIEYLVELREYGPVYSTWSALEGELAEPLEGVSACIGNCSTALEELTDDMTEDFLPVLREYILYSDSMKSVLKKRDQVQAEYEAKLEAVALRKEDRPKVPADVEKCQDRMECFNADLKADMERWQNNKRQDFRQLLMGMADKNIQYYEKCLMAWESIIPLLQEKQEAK
UniProt Q5TEU4: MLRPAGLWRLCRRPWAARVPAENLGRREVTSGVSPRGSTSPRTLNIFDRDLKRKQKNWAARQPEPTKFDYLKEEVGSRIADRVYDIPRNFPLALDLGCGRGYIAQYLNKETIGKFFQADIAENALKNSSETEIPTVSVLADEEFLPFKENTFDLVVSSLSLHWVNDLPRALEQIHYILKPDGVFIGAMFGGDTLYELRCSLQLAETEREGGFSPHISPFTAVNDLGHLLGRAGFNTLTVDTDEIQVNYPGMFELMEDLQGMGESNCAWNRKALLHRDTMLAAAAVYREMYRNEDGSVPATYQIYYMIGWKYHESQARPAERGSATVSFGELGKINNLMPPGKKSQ
UniProt Q5TCQ9: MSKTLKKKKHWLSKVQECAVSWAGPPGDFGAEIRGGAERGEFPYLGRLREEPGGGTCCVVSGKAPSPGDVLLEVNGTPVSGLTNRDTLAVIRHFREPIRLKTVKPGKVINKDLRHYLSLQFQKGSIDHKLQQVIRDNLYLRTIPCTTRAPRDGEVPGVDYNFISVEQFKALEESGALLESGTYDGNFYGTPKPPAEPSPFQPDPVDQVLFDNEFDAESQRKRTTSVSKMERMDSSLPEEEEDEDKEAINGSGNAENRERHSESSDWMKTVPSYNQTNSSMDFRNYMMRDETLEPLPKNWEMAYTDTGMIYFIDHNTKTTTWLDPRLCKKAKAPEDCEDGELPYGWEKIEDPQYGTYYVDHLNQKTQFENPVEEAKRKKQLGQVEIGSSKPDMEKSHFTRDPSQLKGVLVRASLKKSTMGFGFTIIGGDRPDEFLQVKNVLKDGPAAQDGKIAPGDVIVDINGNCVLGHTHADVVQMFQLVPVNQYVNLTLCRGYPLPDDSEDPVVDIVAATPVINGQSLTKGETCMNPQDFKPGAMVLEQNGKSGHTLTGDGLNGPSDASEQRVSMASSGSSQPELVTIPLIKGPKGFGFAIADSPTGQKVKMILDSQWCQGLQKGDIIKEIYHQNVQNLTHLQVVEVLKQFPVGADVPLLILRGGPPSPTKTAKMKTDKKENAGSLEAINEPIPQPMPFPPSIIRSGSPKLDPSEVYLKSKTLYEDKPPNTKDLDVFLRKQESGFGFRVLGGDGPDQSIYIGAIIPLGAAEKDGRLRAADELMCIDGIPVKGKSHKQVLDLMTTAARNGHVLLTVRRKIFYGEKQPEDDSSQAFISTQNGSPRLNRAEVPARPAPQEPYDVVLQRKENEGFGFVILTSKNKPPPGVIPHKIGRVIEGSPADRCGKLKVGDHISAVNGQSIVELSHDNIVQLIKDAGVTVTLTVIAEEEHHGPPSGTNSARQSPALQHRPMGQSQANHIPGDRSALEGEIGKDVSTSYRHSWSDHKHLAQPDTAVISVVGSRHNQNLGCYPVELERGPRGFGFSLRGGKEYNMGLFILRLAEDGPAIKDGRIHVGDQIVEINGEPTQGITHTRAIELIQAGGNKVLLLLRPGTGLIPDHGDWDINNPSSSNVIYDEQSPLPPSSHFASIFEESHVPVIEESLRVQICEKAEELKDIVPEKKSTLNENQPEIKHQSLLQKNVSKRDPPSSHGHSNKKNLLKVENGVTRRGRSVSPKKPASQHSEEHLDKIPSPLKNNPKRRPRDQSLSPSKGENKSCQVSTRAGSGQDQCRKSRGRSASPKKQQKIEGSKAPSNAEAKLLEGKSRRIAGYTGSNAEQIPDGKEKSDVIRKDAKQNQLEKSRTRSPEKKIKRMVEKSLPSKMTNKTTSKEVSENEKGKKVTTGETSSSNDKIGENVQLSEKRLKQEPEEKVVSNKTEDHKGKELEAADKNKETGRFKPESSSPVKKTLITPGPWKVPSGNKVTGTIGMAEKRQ
UniProt Q5EBM0: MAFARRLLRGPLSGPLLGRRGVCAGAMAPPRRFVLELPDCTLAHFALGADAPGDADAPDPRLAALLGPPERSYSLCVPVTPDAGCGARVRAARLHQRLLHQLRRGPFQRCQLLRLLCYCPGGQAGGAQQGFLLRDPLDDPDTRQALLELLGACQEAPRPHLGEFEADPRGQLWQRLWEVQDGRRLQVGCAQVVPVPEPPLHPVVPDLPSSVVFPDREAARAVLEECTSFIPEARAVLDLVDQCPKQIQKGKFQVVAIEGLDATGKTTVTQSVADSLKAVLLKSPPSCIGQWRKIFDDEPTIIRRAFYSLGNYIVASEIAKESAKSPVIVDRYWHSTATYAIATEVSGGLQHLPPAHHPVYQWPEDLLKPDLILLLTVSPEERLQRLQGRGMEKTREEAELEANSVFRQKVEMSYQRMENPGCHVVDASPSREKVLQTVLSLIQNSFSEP
UniProt Q6P444: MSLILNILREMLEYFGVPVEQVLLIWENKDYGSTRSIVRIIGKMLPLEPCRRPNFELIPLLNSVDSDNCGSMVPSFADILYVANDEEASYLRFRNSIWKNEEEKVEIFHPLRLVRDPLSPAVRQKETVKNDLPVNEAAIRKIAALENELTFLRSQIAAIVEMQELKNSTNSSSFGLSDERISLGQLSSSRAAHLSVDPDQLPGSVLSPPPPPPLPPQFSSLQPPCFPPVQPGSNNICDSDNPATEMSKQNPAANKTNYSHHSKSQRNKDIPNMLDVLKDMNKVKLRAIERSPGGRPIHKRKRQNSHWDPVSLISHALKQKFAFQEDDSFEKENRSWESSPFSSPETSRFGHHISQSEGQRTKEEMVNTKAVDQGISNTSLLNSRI
UniProt Q5VZE5: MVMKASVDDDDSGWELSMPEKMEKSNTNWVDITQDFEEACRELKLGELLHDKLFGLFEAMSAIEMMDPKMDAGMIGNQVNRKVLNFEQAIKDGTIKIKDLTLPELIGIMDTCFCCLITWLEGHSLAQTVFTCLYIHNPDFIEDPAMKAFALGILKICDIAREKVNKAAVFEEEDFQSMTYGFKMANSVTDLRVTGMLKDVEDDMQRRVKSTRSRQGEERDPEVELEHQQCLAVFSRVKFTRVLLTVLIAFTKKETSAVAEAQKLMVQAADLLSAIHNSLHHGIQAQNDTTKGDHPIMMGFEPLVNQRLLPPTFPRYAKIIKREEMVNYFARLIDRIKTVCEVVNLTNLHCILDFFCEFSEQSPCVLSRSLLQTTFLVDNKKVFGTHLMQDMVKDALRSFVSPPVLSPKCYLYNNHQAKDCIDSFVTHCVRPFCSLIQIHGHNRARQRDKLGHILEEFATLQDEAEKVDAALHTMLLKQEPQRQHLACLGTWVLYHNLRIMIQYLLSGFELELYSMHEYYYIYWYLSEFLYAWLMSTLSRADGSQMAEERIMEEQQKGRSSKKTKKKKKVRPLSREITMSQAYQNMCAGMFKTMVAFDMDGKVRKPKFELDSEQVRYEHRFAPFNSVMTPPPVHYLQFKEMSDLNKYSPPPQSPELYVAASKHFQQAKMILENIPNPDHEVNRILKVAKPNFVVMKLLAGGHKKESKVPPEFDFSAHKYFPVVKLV

Target	NP40-soluble protein abundance (concentration: 0.1mM)	NP40-soluble protein abundance (concentration: 0.5mM)
UniProt Q69YQ0 and related entries	0.94 ± 0.12	0.96 ± 0.084
UniProt Q5VZL5 and related entries	1.03 ± 0.016	1.12 ± 0.053
AMOT (UniProt Q4VCS5)	0.976 ± 0.067	0.926 ± 0.096
UniProt Q5RI15 and related entries	1.06 ± 0.089	1.09 ± 0.17
UniProt Q5JS54 and related entries	0.948 ± 0.06	0.91 ± 0.12
CDKAL1 (UniProt Q5VV42)	1 ± 0.061	1.02 ± 0.036
Q5TH30 and related entries (UniProt Q9UGV2)	1.02 ± 0.04	1.01 ± 0.043
LPCAT4 (UniProt Q643R3)	0.999 ± 0.035	1 ± 0.073
RSBN1L (UniProt Q6PCB5)	1.06 ± 0.044	1.25 ± 0.057
ERAP2 (UniProt Q6P179)	0.9555 ± 0.0031	0.954 ± 0.049
SNX30 (UniProt Q5VWJ9)	1.03 ± 0.049	0.942 ± 0.012
UniProt Q5TEU4 and related entries	1.05 ± 0.06	1.1 ± 0.082
HABP4 (UniProt Q5JVS0)	1.08 ± 0.36	1.53 ± 0.14
UniProt Q5TCQ9 and related entries	0.957 ± 0.17	0.967 ± 0.1
NOM1 (UniProt Q5C9Z4)	0.997 ± 0.024	1.07 ± 0.06
CMPK2 (UniProt Q5EBM0)	1.04 ± 0.063	1.03 ± 0.055
ADNP2 (UniProt Q6IQ32)	0.991 ± 0.13	1.011 ± 0.0053
UniProt Q5T4F4-2|Q5T4F4-7|Q5T4F4-8|Q5T4F4 and related entries	0.979 ± 0.095	1 ± 0.13
UniProt Q6P444	0.857 ± 0.091	0.926 ± 0.027
UniProt Q58A45 and related entries	0.94 ± 0.013	1.06 ± 0.034
UniProt Q5VZE5	1.04 ± 0.096	1.06 ± 0.059

A second format for some results above:
UniProt Q58A45 and related entries
  NP40-soluble protein abundance (concentration: 0.1mM): 0.94 ± 0.013
  NP40-soluble protein abundance (concentration: 0.5mM): 1.06 ± 0.034
UniProt Q5VZE5
  NP40-soluble protein abundance (concentration: 0.1mM): 1.04 ± 0.096
  NP40-soluble protein abundance (concentration: 0.5mM): 1.06 ± 0.059
